Experimental data from PubChem BioAssay AID2685 (National Center for Advancing Translational Sciences (NCATS), 2010).
This is one part of the list. These are further read-outs of the screen, such as a control signal, another cell line or another target. No call is given for them. Compounds called inactive in the main read-out are mostly missing here. Potencies come from curve fits of mixed quality, noted in brackets.

Assay: qHTS Assay for Lipid Storage Modulators in Drosophila S3 Cells;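 for cell number change: cells counted by Cell Tracker Red CMTPX staining in the red channel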
Details: BODIPY lipid droplet fluorescence, 18-24 h; for cell number change: measured here: cell count max response, cells fed with added oleic acid
Method in brief: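 Drosophila S3 cells got compounds at several concentrations plus oleic acid (400 uM solution). Laser-scanning cytometry with 488 nm excitation read lipid droplets at 500-530 nm and cells at 575-640 nm. Percent activity was relative to 20 uM Triacsin C.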

[1] = measured here: lipid fluorescence (Fed channel) AC50, cells fed with added oleic acid
[2] = measured here: cell number channel AC50, cells fed with added oleic acid

Structure (SMILES) | cell number change [%] | AC50 [1] | AC50 [2]
COc1cc(OC)c(C2C(C#N)=C(C)NC(C)=C2C#N)c(C(=O)O)c1 | -13.1 | 4.11 µM [falling, full curve] | 
CC1=NNC(=O)C1CCC(=O)N/N=C(\C)c1ccc(Cl)cc1 (stereo not drawn) | 20.2 | 4.61 µM [rising, partial curve, poor fit] | 
CCOC(=O)c1ccc(C(=S)N2CCCC2)cc1 | 2.78 |  | 
CCOc1ccc(N2C(=O)Nc3ccc(Br)cc3C2(O)C(=O)NCCN(C)C)cc1 (stereo not drawn) | -22.5 |  | 0.13 µM [falling, full curve, poor fit]
O=C(NCCOc1ccccc1F)c1ccccc1SCc1ccc(F)cc1 | 12.8 |  | 
COc1ccc(N(CC(=O)NCc2ccc(C)cc2)S(=O)(=O)c2c(C)nn(C)c2C)cc1 | 7.67 | 14.6 µM [rising, partial curve, poor fit] | 
Cc1cc(NC(=O)CCC(=O)N(CC(=O)NCC2CCCO2)c2ccccc2)no1 (stereo not drawn) | 12.1 |  | 
CCC(=O)N1c2ccccc2NC2=C(C(=O)CC(C)(C)C2)C1c1cccnc1 (stereo not drawn) | 4.03 | 1.46 µM [rising, partial curve, poor fit] | 
COc1cc(/C=C2\SC(=S)N(Nc3ncc(C(F)(F)F)cc3Cl)C2=O)ccc1O | -36.4 | 29.1 µM [falling, single point] | 29.1 µM [falling, single point]
CCCCCOC(=O)Cn1c(N2CCOCC2)nc2c1c(=O)[nH]c(=O)n2C | 13.9 | 0.116 µM [rising, single point] | 6.51 µM [rising, single point]
Cc1cccc(C(=O)OCC(=O)NCC2CCCO2)c1O (stereo not drawn) |  | 29.1 µM [rising, single point] | 
CCn1cc(Br)c(C(=O)NCc2ccco2)n1 | 5.61 | 23.1 µM [falling, partial curve, poor fit] | 
O=C(Nc1ccc(S(=O)(=O)NCc2ccco2)cc1)c1ccc2ccccc2n1 |  | 1.84 µM [rising, partial curve] | 
c1ccc(CSc2nnc3ccc(-c4ccco4)nn23)nc1 |  | 6.51 µM [falling, single point] | 
CN(C(=O)c1cccc(Nc2ccc(-c3ccc4c(c3)OCCO4)nn2)c1)C1CCCCC1 | -24.7 | 29.1 µM [falling, single point] | 
COc1ccc(Br)cc1CNC(=O)CCC(=O)N1CCSc2ccccc21 | -19.3 | 20.6 µM [falling, single point] | 
CCOc1cc(/C=N/NC(=O)c2ccncc2)ccc1OC(=O)c1ccco1 | -17.6 | 9.2 µM [falling, single point] | 
O=C(NCCCN1CCOCC1)c1cc(-c2ccc(Br)cc2)nc2ccccc12 | 28.1 | 20.6 µM [rising, single point] | 
O=C(CN1C(=O)CCS(=O)(=O)c2ccccc21)Nc1cccc(F)c1 |  | 0.517 µM [falling, full curve] | 
O=C(NCCCN1CCCC1)c1ccc2c(c1)N(Cc1ccccc1)CCS2 | 14.6 |  | 

An excerpt from above in order of length of the SMILES, falling.
Structure (SMILES) | cell number change [%] | AC50 [1] | AC50 [2]
O=C(NCCOc1ccccc1F)c1ccccc1SCc1ccc(F)cc1 | 12.8 |  | 
c1ccc(CSc2nnc3ccc(-c4ccco4)nn23)nc1 |  | 6.51 µM [falling, single point] | 
CCn1cc(Br)c(C(=O)NCc2ccco2)n1 | 5.61 | 23.1 µM [falling, partial curve, poor fit] | 

(next part)

Structure (SMILES) | cell number change [%] | AC50 [1] | AC50 [2]
CSc1ccc(S(=O)(=O)Nc2ccccc2C(=O)N2CCOCC2)cc1 | -14.1 | 11.6 µM [falling, partial curve, poor fit] | 
Cc1nc2ccccc2n(CC(=O)Nc2cc(Cl)cc(Cl)c2)c1=O |  | 1.46 µM [rising, partial curve] | 2.91 µM [rising, single point]
Cc1nc(C)c(-c2nnc(-c3cccc(S(=O)(=O)N(C)C)c3)o2)cc1C(=O)NN | 2.13 |  | 
O=C1c2ccc([N+](=O)[O-])cc2C(=O)N1c1c[nH]c(=O)[nH]c1=O | -12.4 | 6.51 µM [falling, single point] | 
Cc1cc(NC(=O)c2nn3cccnc3c2Cl)no1 |  | 3.66 µM [rising, partial curve] | 2.59 µM [rising, partial curve]
CN(C)CCOC(=O)C12CC3CC(CC(C3)C1)C2 | 5.88 |  | 
O=C(CCS(=O)(=O)c1cccc2nonc12)N1CCOCC1 | -5.54 | 32.6 µM [falling, partial curve, poor fit] | 
CCOc1ccc(S(=O)(=O)N2CCC(C(=O)NCc3ccco3)CC2)cc1C | 9.66 | 0.00461 µM [rising, full curve, poor fit] | 
CCC(C)OC(=O)C[N+](C)(C)CCOC1CC2CCC1(C)C2(C)C (stereo not drawn) | -37.1 | 2.06 µM [falling, partial curve] | 25.9 µM [falling, partial curve, poor fit]
Cc1ccc(NC(=O)COc2ccc(CCO)cc2-n2nc3ccccc3n2)cc1C | -30 | 20.6 µM [falling, single point] | 29.1 µM [falling, single point]
CC(C)(C)c1nnc(NS(=O)(=O)c2cc(Cl)ccc2Cl)s1 | -10.3 | 0.13 µM [rising, full curve, poor fit] | 
COc1cc(C)c(S(=O)(=O)NC2CC(C)(C)NC(C)(C)C2)cc1C | 8.89 | 6.51 µM [rising, single point] | 
O=c1[nH]c2ccccc2n2c(=S)[nH]nc12 | 22.6 | 0.58 µM [falling, single point] | 
COc1cccc(/C=C/C(=O)OCC(=O)c2ccc(C)c(C)c2)c1OC | 4.81 | 14.6 µM [rising, partial curve] | 
CCc1noc(C)c1C(=O)OCC(=O)Nc1nc(-c2ccc(F)c(F)c2)cs1 | 9.65 | 6.51 µM [rising, partial curve] | 
Cc1cc(C(=O)CC#N)c(C)n1-c1ccc(OC(F)F)cc1 | -8.5 |  | 
O=C1CNC(=O)/C(=C\c2ccccc2)N1 | 23.3 | 0.58 µM [rising, partial curve, poor fit] | 
CC(=O)c1c(N2CCCCC2)nc(=S)n(-c2ccccc2)c1C | -7.25 | 0.651 µM [falling, full curve] | 
CCC(C)N(C(=O)COC(=O)CSc1ccc(C)c(C)c1)C1CCS(=O)(=O)C1 (stereo not drawn) | -2.98 |  | 
CC(C)c1ccc(N2C(=O)/C(=C/N(C)C)SC2=S)cc1 | -96.2 | 4.61 µM [falling, partial curve] | 9.2 µM [falling, partial curve]
